Laboratory results reported in PMC12736948.
No constants are given. Whether binding was seen depends on the method and setting. In cells and extracts the contact can be indirect. Some entries that bind do so weakly or less than the wild type.

Amino acid sequences for entries named in this document (tags omitted). Residues count along the entry.
UniProt Q8CGK5, residues 21-535: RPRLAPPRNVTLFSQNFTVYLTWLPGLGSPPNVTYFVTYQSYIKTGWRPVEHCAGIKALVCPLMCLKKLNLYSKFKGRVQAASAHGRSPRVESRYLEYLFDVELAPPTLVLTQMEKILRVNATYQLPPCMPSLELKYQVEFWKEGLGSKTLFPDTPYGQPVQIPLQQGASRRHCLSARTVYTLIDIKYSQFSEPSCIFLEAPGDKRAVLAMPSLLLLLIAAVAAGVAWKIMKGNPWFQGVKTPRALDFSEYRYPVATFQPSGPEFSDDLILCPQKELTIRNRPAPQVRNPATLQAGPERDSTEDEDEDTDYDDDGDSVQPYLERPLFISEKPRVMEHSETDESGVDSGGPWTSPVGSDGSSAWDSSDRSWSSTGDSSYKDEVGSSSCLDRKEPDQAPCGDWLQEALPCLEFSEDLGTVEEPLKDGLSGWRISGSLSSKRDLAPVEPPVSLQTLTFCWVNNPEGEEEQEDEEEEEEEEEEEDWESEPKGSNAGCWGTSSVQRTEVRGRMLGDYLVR

Columns and labels:
[1] = biological target: T1, Phospholipid scramblase 1 (Plscr1), mouse (mouse (endogenous in mouse lung)) (UniProt Q9JJ00); assay: co-IP; 500 μg of mouse lung lysate (RIPA buffer), uninfected or IAV-infected WT mice; anti-Plscr1 polyclonal antibody or control IgG on Catch and Release v2.0 spin columns, 4 °C overnight; western blot for Ifn-λr1
T1 sequence: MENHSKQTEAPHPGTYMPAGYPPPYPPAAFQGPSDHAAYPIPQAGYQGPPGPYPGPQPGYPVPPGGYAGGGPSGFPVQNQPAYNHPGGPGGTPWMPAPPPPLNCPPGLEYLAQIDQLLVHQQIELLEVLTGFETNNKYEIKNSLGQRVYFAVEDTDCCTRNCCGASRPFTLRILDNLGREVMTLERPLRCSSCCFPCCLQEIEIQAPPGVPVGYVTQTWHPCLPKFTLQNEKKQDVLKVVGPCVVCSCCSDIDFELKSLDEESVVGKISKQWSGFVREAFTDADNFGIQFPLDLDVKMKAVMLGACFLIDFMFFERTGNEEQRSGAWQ

[2] = biological target: T1, Phospholipid scramblase 1 (Plscr1), mouse (mouse (endogenous in mouse lung)); assay: proximity ligation
[3] = biological target: T2, PLSCR1(WT), transduced into PLSCR1-/- A549 cells (UniProt O15162); assay: proximity ligation
T2 sequence: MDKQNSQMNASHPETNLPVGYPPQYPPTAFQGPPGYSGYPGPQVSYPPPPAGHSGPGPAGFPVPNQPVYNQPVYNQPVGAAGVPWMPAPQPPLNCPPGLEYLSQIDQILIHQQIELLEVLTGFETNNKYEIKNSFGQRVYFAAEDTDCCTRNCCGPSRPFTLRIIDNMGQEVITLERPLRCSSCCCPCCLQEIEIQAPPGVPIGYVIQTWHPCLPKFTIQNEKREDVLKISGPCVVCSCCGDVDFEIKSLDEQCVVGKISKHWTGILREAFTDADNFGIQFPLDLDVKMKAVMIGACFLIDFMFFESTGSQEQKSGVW

[4] = biological target: PLSCR1(F281A), transduced into PLSCR1-/- A549 cells (UniProt O15162); assay: proximity ligation
[5] = biological target: PLSCR1(H262Y), transduced into PLSCR1-/- A549 cells (UniProt O15162); assay: proximity ligation
[6] = biological target: T3, Phospholipid scramblase 1 (PLSCR1), endogenous in PLSCR1+/+ A549 cells (human (endogenous in A549)) (UniProt O15162); assay: proximity ligation
T3 sequence: T2 sequence

Measured: binding

Interferon-lambda receptor 1 (Ifn-λr1), mouse (from UniProt Q8CGK5 21-535)
binds: [1] | [2]

B1: Interferon-lambda receptor 1 (IFN-λR1), endogenous in A549 cells (receptor, UniProt Q8IU57 21-520)
chain: RPRLAPPQNVTLLSQNFSVYLTWLPGLGNPQDVTYFVAYQSSPTRRRWREVEECAGTKELLCSMMCLKKQDLYNKFKGRVRTVSPSSKSPWVESEYLDYLFEVEPAPPVLVLTQTEEILSANATYQLPPCMPPLDLKYEVAFWKEGAGNKTLFPVTPHGQPVQITLQPAASEHHCLSARTIYTFSVPKYSKFSKPTCFLLEVPEANWAFLVLPSLLILLLVIAAGGVIWKTLMGNPWFQRAKMPRALDFSGHTHPVATFQPSRPESVNDLFLCPQKELTRGVRPTPRVRAPATQQTRWKKDLAEDEEEEDEEDTEDGVSFQPYIEPPSFLGQEHQAPGHSEAGGVDSGRPRAPLVPSEGSSAWDSSDRSWASTVDSSWDRAGSSGYLAEKGPGQGPGGDGHQESLPPPEFSKDSGFLEELPEDNLSSWATWGTLPPEPNLVPGGPPVSLQTLTFCWESSPEEEEEARESEIEDSDAGSWGAESTQRTEDRGRTLGHYMAR
binds: [3] | [4] | [5] | [6]
